Most values lie at the floor of the assay. Slopes are relative: functional sequences can read slightly below zero.
Tested on: Saccharomyces cerevisiae PS128 hsf1 delta, HSF1(1-493) fusion
Assay: growth estimate (transactivation domain function in HSF1 fusion, heat-shock survival) (a.u. (slope of normalised read count over time)); higher = stronger growth at 37°C, i.e. more transactivation activity
Conditions: library: random library
Description: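 Random 60-nt DNA library encoding peptides of up to 20 aa, fused to the C-terminus of yeast HSF1 residues 1-493 (C-terminal TAD deleted) and expressed from the native HSF1 promoter on a CEN plasmid in hsf1-deleted S. cerevisiae PS128. Cells were selected at 37°C on -trp 5-FOA plates for 0, 2, 4, 6 and 8 days and amplicons were sequenced. Growth estimate is the slope of a robust linear fit of total-sum-normalised read counts (normalised to the first time point) over time, using at least 2 replicates. Sequences are classed functional (TAD activity) above a threshold of -0.13, set from stop-codon control sequences.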

| Substance | growth estimate |
| --- | --- |
| PGGMSIQRDSVPRPSTSGNA | < -0.25 |
| SYVRHTQPGQTCC | < -0.25 |
| RMLLPPRFQWGRLLVK | < -0.25 |
| HFE | < -0.25 |
| RSHSRVRISPWVA | < -0.25 |
| CTLNLKSTTGNAVRTTVVFQ | < -0.25 |
| FLLSPTTGDVPLGRNDSLAY | -0.125 |
| LYRMWADSNKSDYRTRPIHS | < -0.25 |
| QRGPALEPEDGRRSVAPSGQ | < -0.25 |
| VVRGGTLVARSTNVFMHLRR | < -0.25 |
| TAGESVASGYGLTLLFGDAP | < -0.25 |
| LSVKPDAYGHAAMYSHRPKG | < -0.25 |
| SVVIWEKGLLILDDLRGFNA | < -0.25 |
| PYVKTAKDLPM | < -0.25 |
| IKYSGGGSLCSSVLVSLGTV | -0.25 |
| LPSAPDIYIRLRHERSYVKR | < -0.25 |
| CSIEYSPIRARCPLRSMPPP | < -0.25 |
| IRTNRESCVMRLTRIRVR | < -0.25 |
| SRKRCCAVQYGANGSRSAGK | < -0.25 |
| IYP | < -0.25 |
| TRIVYHNVWE | -0.145 |
| KAMGGQGTSWKLLAMRVAQQ | < -0.25 |
| QYTIENG | < -0.25 |
| HARFSACVHFEFPFHMLKGY | < -0.25 |

| Substance | growth estimate |
| --- | --- |
| GSYVYFGVTISASATWCRKY | < -0.25 |
| NSKGKGIRQPTLMPRSLSAV | < -0.25 |
| PYFVQDYAARRGQPVHLYVR | < -0.25 |
| VDARAIPHWAR | < -0.25 |
| WQLSPVEHTAPRVRFSVSHP | < -0.25 |
| PERLRI | < -0.25 |
| FSPLHRARNRV | -0.245 |
| TDEQLWFLQLSCRLVIG | < -0.25 |
| PGQE | < -0.25 |
| GKK | < -0.25 |
| PHRVLSTSCT | < -0.25 |
| HLV | < -0.25 |
| TLI | < -0.25 |
| VPNVMRRLDTWSRVHSPFGG | < -0.25 |
| GFGITIFRVLNGLLSCGIVP | < -0.25 |
| VIPAIVTTQIHC | < -0.25 |
| TVSSVLTPSLQEFDKPFSHV | < -0.25 |
| AAGFARVSFVWLDIFGLAAG | < -0.25 |
| RFVCLSILRELDCSMCSRAM | < -0.25 |
| DLRTFVLTAILFGRCGRSHA | < -0.25 |
| RVSGIRCI | < -0.25 |
| MFGHQSTVCLRISSTYMAMT | < -0.25 |
| WIAQYCILCRAPL | < -0.25 |
| IHASG | < -0.25 |

| Substance | growth estimate |
| --- | --- |
| NVRECNR | < -0.25 |
| GCITSYSRKVRGREHVGFRA | < -0.25 |
| SSGLYWIPLRVFSRGGVGFR | < -0.25 |
| LFLKERED | < -0.25 |
| QLASQIYGTWP | < -0.25 |
| CTPFLIMRGTNPSSRG | < -0.25 |
| CQE | < -0.25 |
| RIERTQEQERYSGVASSCRA | < -0.25 |
| FQAGP | < -0.25 |
| SHEGWGYP | < -0.25 |
| SIVNLRLRIAPAAHRLHSAE | < -0.25 |
| PVLRSASGASSELIDARLLL | < -0.25 |
| INKLGSFCTWFL | -0.156 |
| WQLRGAFVFP | < -0.25 |
| GSLWVDLVYSAWKS | < -0.25 |
| SEILSSK | < -0.25 |
| NWRFLTTERAFNSPSRATRD | < -0.25 |
| DWGHSPPSGDTENTFELASL | < -0.25 |
| SNLRADLLARMSPRLGARGI | < -0.25 |
| ASSKFRL | < -0.25 |
| MNHNGLISRFTGKI | < -0.25 |
| RSTAKSPS | < -0.25 |
| ALQGSSGSMCGSQSKCVRGR | < -0.25 |
| YETTCGRSRSRGSHNAVVSF | < -0.25 |

| Substance | growth estimate |
| --- | --- |
| DYRCQGHMGARSLNWTPVFP | < -0.25 |
| AFLGGDIGLSIGGACGFMYV | -0.206 |
| MSTGLGCFVAASGGLYGGPN | < -0.25 |
| TNGGHLIGWGCQKECTSPPC | < -0.25 |
| PRTPVPRGKPSVP | < -0.25 |
| IADAGDAPSREATSPISSAH | < -0.25 |
| DELARRLCTCLPGNSHPSSA | < -0.25 |
| PGIRPFQSGVMSLA | < -0.25 |
| AWGSNLRCPTGLLMDSRTQR | < -0.25 |
| SARTLR | < -0.25 |
| CLVRLKNRHGR | < -0.25 |
| FGPPKKCVNGPVAAQPVIVC | < -0.25 |
| ELAGRVFRLCAKLSGRYFDA | < -0.25 |
| PERPRGCTPLTAR | < -0.25 |
| STRHSTPILLGHWSRILRQT | < -0.25 |
| FISSSRGAVHSHTLWLGDRG | < -0.25 |
| GCATVGLPYQAGKRGVRTVT | -0.243 |
| VGQIWVQMRCRV | < -0.25 |
| PLHAARLCKRAGEGHARPRV | -0.246 |
| TRFTASAHQGLWHNKHPQAA | < -0.25 |
| AGYHGWLV | < -0.25 |
| PCGLCTAKARSKSPHVGGTR | < -0.25 |
| PVQGVCLLAPLNEPDCRKCM | < -0.25 |
| VEESRNVLLGLPGLEMSSCA | < -0.25 |

Look-ups from above.
In growth estimate, PGIRPFQSGVMSLA shows < -0.25
In growth estimate, AFLGGDIGLSIGGACGFMYV shows -0.206
In growth estimate, CSIEYSPIRARCPLRSMPPP shows < -0.25
In growth estimate, SVVIWEKGLLILDDLRGFNA shows < -0.25
In growth estimate, NVRECNR shows < -0.25
In growth estimate, RSHSRVRISPWVA shows < -0.25
In growth estimate, NSKGKGIRQPTLMPRSLSAV shows < -0.25

Rewritten as labelled records: entries from further up.
IADAGDAPSREATSPISSAH
  growth estimate = < -0.25
PVQGVCLLAPLNEPDCRKCM
  growth estimate = < -0.25
VEESRNVLLGLPGLEMSSCA
  growth estimate = < -0.25

More entries

| Substance | growth estimate |
| --- | --- |
| QLTEGGQFVSRGDESYYKGD | < -0.25 |
| VPDKSSAS | < -0.25 |
| DPGASRCCGRGGSVLIDFSR | < -0.25 |
| RQIIQCGQGPEGQKLPTSSP | < -0.25 |
| AKR | < -0.25 |
| DRPTSVDQPRSSYGETERLW | < -0.25 |
| LLHKPIFRLQCHTIEGMVAR | < -0.25 |
| GRSDTR | < -0.25 |
| IDKHHMIGQPVTYGTQRGDT | < -0.25 |
| DHPTLVSVVVNRVWFNRDGK | < -0.25 |
| PMRPVYTEGTFVG | < -0.25 |
| EQYLDKVKRMKSKQYRRWAS | < -0.25 |
| FGREYVGSVICIISRQRVLK | < -0.25 |
| GGEPWICGGPQVLLGSTYAS | < -0.25 |
| TIEFVASRGSRTKYEVMRPA | < -0.25 |
| ERKAGSFA | < -0.25 |
| LPERQW | < -0.25 |
| GGYISRLQYDTSDQH | < -0.25 |
| ALRDVKTSESSNVSNGLNGV | < -0.25 |
| KVRPLIRAFKRDPESSIPRV | -0.237 |
| TGYLLVHPSGY | < -0.25 |
| DLLCSGLRRQNNGFRSLITK | < -0.25 |
| PKEWSAKVRDSVAALCRGLQ | < -0.25 |
| RFTLNRVVRIMVTCVSF | < -0.25 |

| Substance | growth estimate |
| --- | --- |
| DMR | < -0.25 |
| PAGHNPKARKPLVIIWRCLG | < -0.25 |
| NWVSVLSALGGLLNAAP | < -0.25 |
| AKFISITIRRSKRHPPRGFR | < -0.25 |
| RRVRGDCLIQVTIHLDGTSV | < -0.25 |
| CQPLASTSFKMKSEK | < -0.25 |
| RWQSGQIEGRPVGCNVLCHI | < -0.25 |
| RSLII | < -0.25 |
| WAY | < -0.25 |
| VHANCS | < -0.25 |
| VGRGEFHTLGDRTGSFLPSS | < -0.25 |
| NGMSCGYWDTGTGRCRQHGL | < -0.25 |
| RILCQRYPIYAWSR | < -0.25 |
| PEIA | < -0.25 |
| EAVRSIDNDTRGPFSR | < -0.25 |
| KNGTVIET | < -0.25 |
| RMTDLGLGSQRDVVVVVRQR | < -0.25 |
| VGSQVDLRMTPEPSHSLFKP | < -0.25 |
| RTLGRVRSHGSRMRCRQGMV | < -0.25 |
| DGSRVAFVGRSGDGRLVQLT | < -0.25 |
| TGAWV | < -0.25 |
| RFR | < -0.25 |
| HRSTAH | < -0.25 |
| RRATTQGASPHLGSVPYGCR | < -0.25 |

| Substance | growth estimate |
| --- | --- |
| KTPA | < -0.25 |
| VAMGTERGCERFKLQWTRPL | < -0.25 |
| LPGTPADRVKGVGGANIEWA | < -0.25 |
| CYLHLRPVSGPSDAPRACGG | < -0.25 |
| VLGVTESVYHGTRE | < -0.25 |
| HLDILQSPTHQLVKGNEMP | < -0.25 |
| SCPASRG | < -0.25 |
| YFTIRQSRRTRSWKERLTIH | < -0.25 |
| SRACRVEG | < -0.25 |
| VGHVVHHFCIEPLEDAK | < -0.25 |
| YSRIQA | < -0.25 |
| YVVASTFDRETGTDQSQRIL | < -0.25 |
| IGPVPILPTA | < -0.25 |
| ARRYLR | -0.198 |
| TRISLYRIRQTSLTWYPEGE | < -0.25 |
| LLVG | < -0.25 |
| YQKAFNLYGVWTLSRGGLHP | < -0.25 |
| RGLLRDLCTYRCQSPPSPRP | < -0.25 |
| KVNRASYGVNVGCL | < -0.25 |
| GYSLGVLPHAGFRAIRRYVS | < -0.25 |
| RGVRPETFETAKIKQWKGPR | < -0.25 |
| RAG | < -0.25 |
| LWGLIYWLLGVNLRRNLLYV | < -0.25 |
| SGASYFEFYTGNNTRLRFSF | < -0.25 |

| Substance | growth estimate |
| --- | --- |
| FPTILVCPASCRTNLPHCVV | < -0.25 |
| LPMRSLSGSPFSGWSALQEE | < -0.25 |
| YQGRIGAPAVIRHR | < -0.25 |
| AGSF | < -0.25 |
| RLTLPGAAHRLITATGVPIE | < -0.25 |
| PKLYTAIVSNTRKWGQVRYL | < -0.25 |
| ALRCFCPVFASNAGKSNSFR | < -0.25 |
| FLHSTSEP | < -0.25 |
| GPQGNASPVN | < -0.25 |
| RPSEVVCTVVSPRSTST | < -0.25 |
| LGGT | < -0.25 |
| GSTRNWSFQSPGPRHDRRYG | < -0.25 |
| RALEPTKPAGLSSDDVDS | < -0.25 |
| GSIRDSGIALSPSGWQSGK | < -0.25 |
| RKNWPGPPAILE | < -0.25 |
| SISLPRVPVNPDDNALLKLG | < -0.25 |
| DVWSARSLIEVHDS | < -0.25 |
| TRRAACGI | < -0.25 |
| WNGKTLIMGALRSTWEDVPI | < -0.25 |
| CEKTGPGIQIHVVVMKCCDG | < -0.25 |

Source: the supplement of paper PMC5949888
